Assay results taken from US20260209387A1, “SINGLE-DOMAIN ANTIBODY FOR INHIBITION OF NEUTROPHIL ELASTASE ACTIVITY” (UNIVERSITE DE LIEGE, priority 2023, published 2026).
Results are given in words; binding and its absence hold for the method and conditions named.

How the values were obtained:
[1] = biological target: mouse pancreatic elastase (mouse); test: BLI, biotinylated NbE201 on streptavidin sensor, protease in solution
[2] = biological target: mouse pancreatic elastase (mouse); test: BLI, biotinylated NbE201 on streptavidin sensors, protease in solution

binding [1]: no binding (tested: 50 nM)
binding [2]: no binding (tested: 50 nM)
B1: biotinylated NbE201 (VHH)
VHH: QVQLQESGGGLVQAGGSLRLSCVVPGRTISLYRMGWFRQAPGKEREFVAGINWSGDMTDYVDSVKGRFTISRDNAKNTVYLEMNSLKPEDTAIYYCTADPKLLPLADSSYGYWGQGTQVTVSS
modifications: C-terminal Cys biotinylated with EZ-Link Maleimide-PEG2-Biotin
notes: Form immobilised on streptavidin sensors in all BLI experiments; It was produced in the pHEN25 vector and biotinylated site-specifically on its C-terminal Cys; also called NbE201_Cter Biot; biotinylated ISVD NbE201
